The mice bore no tumour; each value counts animals alive of those treated. Counts of survivors are from the toxicity check (mostly the fifth day) where no day follows; animals may have died later. Schedules are NCI's codes, read here as Q, the interval in days (D) or hours (H), X, the number of doses.
System: B6D2F1 mice, nontumored toxicity test, survival
Experiment: NCI In Vivo Anticancer Drug Screen. Data for tumor model Nontumored Animals (Toxicity Test) in B6D2F1 (BDF1) mice
Conditions: vehicle: water

`CO[C@H](C(=O)[C@@H](O)[C@@H](C)O)[C@@H]1Cc2cc3cc(OC4CC(OC5CC(O)C(O)C(C)O5)C(O)C(C)O4)c(C)c(O)c3c(O)c2C(=O)[C@H]1OC1CC(OC2CC(OC3CC(C)(O)C(O)C(C)O3)C(O)C(C)O2)C(O)C(C)O1` (some centres undefined) was tested, and the survivor count (dose: 0.01 mg/kg/injection, schedule: Q03HX024 (ip)) was 6 of 6, the survivor count (dose: 0.02 mg/kg/injection, schedule: Q03HX016 (ip)) was 5 of 6 and the survivor count (dose: 0.02 mg/kg/injection, schedule: Q03HX024 (ip)) was 6 of 6. The survivor count (dose: 0.04 mg/kg/injection, schedule: Q03HX008 (ip)) was 6 of 6, the survivor count (dose: 0.04 mg/kg/injection, schedule: Q03HX016 (ip)) was 6 of 6 and the survivor count (dose: 0.04 mg/kg/injection, schedule: Q03HX024 (ip)) was 6 of 6. The survivor count (dose: 0.09 mg/kg/injection, schedule: Q01DX009 (ip)) was 6 of 6, the survivor count (dose: 0.09 mg/kg/injection, schedule: Q03HX008 (ip)) was 5 of 6 and the survivor count (dose: 0.09 mg/kg/injection, schedule: Q03HX016 (ip)) was 6 of 6. For the same compound, the survivor count (dose: 0.09 mg/kg/injection, schedule: Q03HX024 (ip)) was 6 of 6, the survivor count (dose: 0.09 mg/kg/injection, schedule: Q04DX003 (ip)) was 5 of 6 and the survivor count (dose: 0.19 mg/kg/injection, schedule: Q01DX009 (ip)) was 6 of 6. The survivor count (dose: 0.19 mg/kg/injection, schedule: Q03HX008 (ip)) was 3 of 6, the survivor count (dose: 0.19 mg/kg/injection, schedule: Q03HX016 (ip)) was 6 of 6 and the survivor count (dose: 0.19 mg/kg/injection, schedule: Q03HX024 (ip)) was 1 of 6. The survivor count (dose: 0.19 mg/kg/injection, schedule: Q04DX003 (ip)) was 6 of 6, the survivor count (dose: 0.19 mg/kg/injection, schedule: Q08DX002 (ip)) was 6 of 6 and the survivor count (dose: 0.37 mg/kg/injection, schedule: Q01DX001 (ip)) was 6 of 6. The survivor count (dose: 0.37 mg/kg/injection, schedule: Q01DX009 (ip)) was 6 of 6, the survivor count (dose: 0.37 mg/kg/injection, schedule: Q03HX008 (ip)) was 0 of 6 and the survivor count (dose: 0.37 mg/kg/injection, schedule: Q03HX016 (ip)) was 0 of 6. For the same compound, the survivor count (dose: 0.37 mg/kg/injection, schedule: Q04DX003 (ip)) was 6 of 6, the survivor count (dose: 0.37 mg/kg/injection, schedule: Q08DX002 (ip)) was 6 of 6 and the survivor count (dose: 0.75 mg/kg/injection, schedule: Q01DX001 (ip)) was 6 of 6. The survivor count (dose: 0.75 mg/kg/injection, schedule: Q01DX009 (ip)) was 5 of 6, the survivor count (dose: 0.75 mg/kg/injection, schedule: Q04DX003 (ip)) was 5 of 6 and the survivor count (dose: 0.75 mg/kg/injection, schedule: Q08DX002 (ip)) was 6 of 6. For the same compound, the survivor count (dose: 1.5 mg/kg/injection, schedule: Q01DX001 (ip)) was 6 of 6, the survivor count (dose: 1.5 mg/kg/injection, schedule: Q01DX009 (ip)) was 6 of 6 and the survivor count (dose: 1.5 mg/kg/injection, schedule: Q04DX003 (ip)) was 6 of 6. For the same compound, the survivor count (dose: 1.5 mg/kg/injection, schedule: Q08DX002 (ip)) was 5 of 6, the survivor count (dose: 3.0 mg/kg/injection, schedule: Q01DX001 (ip)) was 2 of 6 and the survivor count (dose: 3.0 mg/kg/injection, schedule: Q08DX002 (ip)) was 2 of 6.

`CC[n+]1ccc(Nc2ccc(NC(=O)c3ccc(Nc4cc[n+](CC)c5ccc(N)cc45)cc3)cc2)cc1` was tested, and the survivor count (dose: 0.12 mg/kg/injection, schedule: Q01DX005 (iv)) was 8 of 8, the survivor count (dose: 0.12 mg/kg/injection, schedule: Q04DX003 (iv)) was 8 of 8 and the survivor count (dose: 0.25 mg/kg/injection, schedule: Q01DX005 (iv)) was 8 of 8. The survivor count (dose: 0.25 mg/kg/injection, schedule: Q04DX003 (iv)) was 8 of 8, the survivor count (dose: 0.5 mg/kg/injection, schedule: Q01DX005 (iv)) was 8 of 8 and the survivor count (dose: 0.5 mg/kg/injection, schedule: Q03HX024 (ip)) was 8 of 8. For the same compound, the survivor count (dose: 0.5 mg/kg/injection, schedule: Q03HX024 (oral)) was 8 of 8, the survivor count (dose: 0.5 mg/kg/injection, schedule: Q04DX003 (iv)) was 8 of 8 and the survivor count (dose: 1.0 mg/kg/injection, schedule: Q01DX005 (iv)) was 8 of 8. For the same compound, the survivor count (dose: 1.0 mg/kg/injection, schedule: Q01DX009 (oral)) was 8 of 8, the survivor count (dose: 1.0 mg/kg/injection, schedule: Q03HX024 (ip)) was 8 of 8 and the survivor count (dose: 1.0 mg/kg/injection, schedule: Q03HX024 (oral)) was 8 of 8. For the same compound, the survivor count (dose: 1.0 mg/kg/injection, schedule: Q04DX003 (iv)) was 8 of 8, the survivor count (dose: 2.0 mg/kg/injection, schedule: Q01DX005 (iv)) was 0 of 8 and the survivor count (dose: 2.0 mg/kg/injection, schedule: Q01DX009 (ip)) was 8 of 8. The survivor count (dose: 2.0 mg/kg/injection, schedule: Q01DX009 (oral)) was 8 of 8, the survivor count (dose: 2.0 mg/kg/injection, schedule: Q03HX024 (ip)) was 8 of 8 and the survivor count (dose: 2.0 mg/kg/injection, schedule: Q03HX024 (oral)) was 8 of 8. The survivor count (dose: 2.0 mg/kg/injection, schedule: Q04DX003 (iv)) was 3 of 8, the survivor count (dose: 4.0 mg/kg/injection, schedule: Q01DX009 (ip)) was 8 of 8 and the survivor count (dose: 4.0 mg/kg/injection, schedule: Q01DX009 (oral)) was 8 of 8. For the same compound, the survivor count (dose: 4.0 mg/kg/injection, schedule: Q03HX024 (ip)) was 8 of 8, the survivor count (dose: 4.0 mg/kg/injection, schedule: Q03HX024 (oral)) was 8 of 8 and the survivor count (dose: 8.0 mg/kg/injection, schedule: Q01DX009 (oral)) was 8 of 8. For the same compound, the survivor count (dose: 8.0 mg/kg/injection, schedule: Q04DX003 (ip)) was 8 of 8 and the survivor count (dose: 16.0 mg/kg/injection, schedule: Q04DX003 (ip)) was 6 of 8.

Reference: PubChem BioAssay AID186 (DTP/NCI, 2004)
